Results from publication PMC12794193.
These are yes or no findings as the source states them, for the method shown. In cells and extracts the contact can be indirect. For part of these data: Binding can be weak; no strength is given. Tags and fused reporters may be left off the sequences shown.

Experiments:
Assay in all cases: co-IP; HEK293T cells co-transfected with tagged constructs; lysis in 25 mM tris-HCl pH 7.4, 150 mM NaCl, 1 mM EDTA, 1% NP-40, 5% glycerol; antibody (anti-Myc or anti-Flag) overnight at 4 °C, protein A/G magnetic beads 4 h; immunoblot; some panels with CQ (10 μM, 6 h), Myc-SENP6 overexpression or Senp6 knock-down
Flag-NLRP3-ΔNACHT = biological target: Flag-NLRP3-ΔNACHT
Flag-NLRP3-ΔLRR = biological target: Flag-NLRP3-ΔLRR
Flag-NLRP3-ΔPYD = biological target: Flag-NLRP3-ΔPYD

B1: Myc-SENP6 (enzyme, UniProt Q9GZR1 1-1112)
chain: MAAGKSGGSAGEITFLEALARSESKRDGGFKNNWSFDHEEESEGDTDKDGTNLLSVDEDEDSETSKGKKLNRRSEIVANSSGEFILKTYVRRNKSESFKTLKGNPIGLNMLSNNKKLSENTQNTSLCSGTVVHGRRFHHAHAQIPVVKTAAQSSLDRKERKEYPPHVQKVEINPVRLSRLQGVERIMKKTEESESQVEPEIKRKVQQKRHCSTYQPTPPLSPASKKCLTHLEDLQRNCRQAITLNESTGPLLRTSIHQNSGGQKSQNTGLTTKKFYGNNVEKVPIDIIVNCDDSKHTYLQTNGKVILPGAKIPKITNLKERKTSLSDLNDPIILSSDDDDDNDRTNRRESISPQPADSACSSPAPSTGKVEAALNENTCRAERELRSIPEDSELNTVTLPRKARMKDQFGNSIINTPLKRRKVFSQEPPDALALSCQSSFDSVILNCRSIRVGTLFRLLIEPVIFCLDFIKIQLDEPDHDPVEIILNTSDLTKCEWCNVRKLPVVFLQAIPAVYQKLSIQLQMNKEDKVWNDCKGVNKLTNLEEQYIILIFQNGLDPPANMVFESIINEIGIKNNISNFFAKIPFEEANGRLVACTRTYEESIKGSCGQKENKIKTVSFESKIQLRSKQEFQFFDEEEETGENHTIFIGPVEKLIVYPPPPAKGGISVTNEDLHCLNEGEFLNDVIIDFYLKYLVLEKLKKEDADRIHIFSSFFYKRLNQRERRNHETTNLSIQQKRHGRVKTWTRHVDIFEKDFIFVPLNEAAHWFLAVVCFPGLEKPKYEPNPHYHENAVIQKCSTVEDSCISSSASEMESCSQNSSAKPVIKKMLNKKHCIAVIDSNPGQEESDPRYKRNICSVKYSVKKINHTASENEEFNKGESTSQKVADRTKSENGLQNESLSSTHHTDGLSKIRLNYSDESPEAGKMLEDELVDFSEDQDNQDDSSDDGFLADDNCSSEIGQWHLKPTICKQPCILLMDSLRGPSRSNVVKILREYLEVEWEVKKGSKRSFSKDVMKGSNPKVPQQNNFSDCGVYVLQYVESFFENPILSFELPMNLANWFPPPRMRTKREEIRNIILKLQEDQSKEKRKHKDTYSTEAPLGEGTEQYVNSISD
- binding (Flag-NLRP3-ΔNACHT): no binding
- binding (Flag-NLRP3-ΔLRR): binds
- binding (Flag-NLRP3-ΔPYD): binds
